Experimental findings from patent US20220177911 are described below.

What all share (experiment): activity in cells
What all share (conditions): minimal activation as monomer, CHO-K1; protein in cells; protein details: VP48, mCherry; only the site is given

The subject of data set [1] is T1, 42ZF R2A R39A R67A-VP48 (monomer) (synthetic).
T1 sequence: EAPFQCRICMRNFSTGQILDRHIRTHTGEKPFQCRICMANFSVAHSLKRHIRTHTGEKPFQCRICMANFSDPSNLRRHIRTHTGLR

The test system of data set [2] is T2, BCRZF R39A-VP48 (monomer) (synthetic).
T2 sequence: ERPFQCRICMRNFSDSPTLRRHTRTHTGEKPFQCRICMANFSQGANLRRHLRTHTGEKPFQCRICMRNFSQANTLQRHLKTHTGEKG

In data set [3] the test system is T3, 37ZF R2A R11A R39A R67A-VP48 (monomer) (synthetic).
T3 sequence: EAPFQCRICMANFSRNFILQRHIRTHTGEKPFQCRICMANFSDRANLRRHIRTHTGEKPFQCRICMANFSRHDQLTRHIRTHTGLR

Weaker means in comparison with the reference protein, sequence or condition of that experiment. Protein sequences can lack the tags named with them.

On to “GACGCTGCTGACGCTGCT (double strand) [42bs_42bs]”, for which the “activity on this sequence” value in data set [1] is “less active”.

Consider “GCAGAAGCCGCAGAAGCC (double strand) [BCRbs_BCRbs]”, for which, in data set [2], the “activity on this sequence” value is listed as “less active”.

“TGAGGACGTGTTGAGGACGTGT (double strand) [37bs_37bs]”: the “activity on this sequence” value in data set [3] was “less active”.
